Earlier results on 1 compound are cited in paper PMC6151569 (Molecules : A Journal of Synthetic Chemistry and Natural …, 2017).

The subject of this data set is LPS-stimulated TNF-α release from human whole blood. The note with it: printed in Figure 1, known inhibitors; cited from earlier work.

On to `C[S+]([O-])c1ccc(-c2nc(-c3ccncc3)c(-c3ccc(F)cc3)[nH]2)cc1` (stereo not shown) [SB203580], for which the half-inhibitory concentration (IC50) was 1760 nM.
